These are yes or no findings as the source states them, for the method shown. For some of these results: Binding seen in cells or lysates may run through a third protein. Some binding calls cover weakened binding; strength is not graded here.
Tests used:
[1] = molecular target: TCL1A two-hybrid bait (pGBT10-TCL1A) (human) (UniProt P56279); assay: two-hybrid; screen in yeast strain HF7c; bait pGBT10-TCL1A, peripheral blood mononuclear cell cDNA library in pGAD; HIS+ βGAL+ colonies
[2] = molecular target: GST-TCL1A (human) (UniProt P56279); assay: pull-down; GST proteins on glutathione-sepharose beads incubated with rabbit reticulocyte lysates containing [35S]-labeled translated IκBα or IκBα(1–253); 12% SDS-PAGE, autoradiography; only the target purified
[3] = molecular target: FLAG-TCL1A (human) (UniProt P56279); assay: co-IP; 293 cells transiently transfected with pCMV2-FLAG-TCL1A and pCMV-IκBα; extracts with mouse anti-Flag antibody 16 h, protein G-Sepharose; immunoblot

Sequences of proteins named here, by UniProt entry; tags and fusion partners are left off. A change or cut given only in a name is not applied to a line headed by its entry.
UniProt P56279: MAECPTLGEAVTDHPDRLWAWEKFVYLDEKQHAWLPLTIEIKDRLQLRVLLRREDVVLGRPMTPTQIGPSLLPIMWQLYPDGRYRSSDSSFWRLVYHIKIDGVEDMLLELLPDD
UniProt P25963: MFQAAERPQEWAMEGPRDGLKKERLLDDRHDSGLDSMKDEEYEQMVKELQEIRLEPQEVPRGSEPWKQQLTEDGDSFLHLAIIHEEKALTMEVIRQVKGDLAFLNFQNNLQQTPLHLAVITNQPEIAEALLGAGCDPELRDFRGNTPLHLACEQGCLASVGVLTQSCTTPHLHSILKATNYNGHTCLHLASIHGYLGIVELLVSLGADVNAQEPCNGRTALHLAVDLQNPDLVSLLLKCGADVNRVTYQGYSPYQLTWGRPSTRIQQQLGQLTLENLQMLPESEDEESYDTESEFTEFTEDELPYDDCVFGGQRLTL

| Substance | binding [2] | other results |
| --- | --- | --- |
| IκBα residues 73–317 (two-hybrid prey) (from UniProt P25963 73-317) (domain or fragment) |  | binding [1]: binds |
| [35S]-labeled IκBα (from UniProt P25963 1-317) | binds |  |
| [35S]-labeled IκBα(1–253) (from UniProt P25963 1-253) (domain or fragment) | binds |  |
| IκBα over-expressed in 293 cells (pCMV-IκBα) (from UniProt P25963 1-317) |  | binding [3]: binds |

— publication PMC2718698, “The TCL1A Oncoprotein Interacts Directly with the NF-κB Inhibitor IκB” (PLoS ONE, 2009)
